Results are given in words; binding and its absence hold for the method and conditions named. A result given as binding can be weak or reduced; the word gives no strength. Where a sequence is shown, tags or fusion partners need not be part of it.

The target of assay [1] is MBP-S6K with both VHL-like regions deleted (Drosophila). The assay can be described thus: pull-down; MBP-pulldown of MBP-tagged bait with GST-CCT4; pulldown buffer 20 mM Tris pH 7.5, 150 mM NaCl, 0.5 mM EDTA, 10% glycerol, 0.1% Triton X-100, 1 mM DTT; blots with anti-MBP and anti-GST; both purified.
For another assay, the target named is MBP-S6K (Drosophila). The assay is described as above.

B1: GST-CCT4 (protein, UniProt Q9VK69 1-533)
chain: MAPKAAAVNIKPTAKAFKDKSKPTDVRLSNIQAAKAVSDAIRTSLGPRGMDKMIQAGNGEVSITNDGATILKQMNVLHPAAKMLVELSRAQDVAAGDGTTSVVVIAGALLEACEKLLQKGLHPTAISDSFQRCSNKAVEILKQMSTPIELDDRETLIKSASTSLNSKVVSQQSSLLAPIAVDAVLKVTDPGKETSVDLKNIKVISSLGGTVEDTELVDGLVFTCRSAGSNAPKRIEKAKIGLIQFCISAPKTDMDHNVIVSDYAAMDRVLKEERSYILNIVKQIKKSGCNVLLVQKSILRDAVSDLAQHFLDKIKCMVVKDVEREDIEFVCKTLHCRPIASLDHFTAENLSSADLVEEVASGTNKFVKITGIQNMGRTVSIICRGSNKLVLEEAARSLHDALCVVRCLVKLRAQIVGGGAPEIEMALQLAALAQTVEGVDAYCFRAFADALEVIPSTLAENAGLNPIATVTELRNRHAQGEKNAGINVRKGAITDIFAENVVQPLLVSISSITLATETIRSILKIDDIVNTFS
As to B1, the binding entry (in assay [1]; with MBP-S6K (Drosophila)) was “binds” in each case.

These data come from paper PMC6756063, “TRiC/CCT chaperonins are essential for organ growth by interacting with insulin/TOR signaling in Drosophila” (Oncogene, 2019).
